Test results reported in patent EP2686338B1, “FUNCTIONALIZED BIOMATERIALS FOR TISSUE REGENERATION” (Nanomed3d S.r.l., priority 2011, dated 2018).

Experiments:
murine NSCs = experiment: Phage biopanning (Ph.D.-7 library, three rounds, clone sequencing) against adhering NSCs on Laminin; assay type: cell-based; conditions: after third round; for Internalized phage clones %: internalized clones (IP); for Eluted phage clones %: cell membrane bound phages (MP)
Experimental: (§1) Two days prior cell seeding murine NSCs were mechanically dissociated in order to seed the maximum percentage of stem cells.
NSCs, three million per plate, were seeded over Laminin coated 10 cm Petri dishes (Falcon). After an overnight incubation in 10ml of βFGF supplemented (10 ng/ml) neural basal media, cells were washed with pre-warmed Incubation Medium.
(§2) The Ph.D.-7 phage library was used (New England Biolabs), composed of phage clones with random 7-mer peptides fused to the N-terminal of PIII, a minor coat protein of M13 phage.
(§3) Before biopanning experiments against NSCs in adhesion, the phage library was incubated in a Laminin-coated tissue culture dish in order to remove phages with affinity to the Laminin coated plastic surface (negative selection). Mouse Laminin (10 mL at 25 µg/ml concentration) (Roche) was incubated overnight at 37°C. 10^12 cfu of phages were incubated for one hour at 37°C in pre-warmed Incubation Medium (DMEM supplemented with 0.1% BSA) in Laminin-coated plastic surfaces (setting for adhering NSCs) or plain plastic surfaces (setting for NSCs in suspension). Then incubation Medium and a total volume of five washes of Washing Buffer (DPBS supplemented with 1% BSA and 0.05% Tween-20) were collected and eluted phages were amplified as described in the standard protocol of New England Biolabs.
(§4) 10^12 cfu of the negatively selected phage library were diluted in 10 ml Incubation Medium and pipetted onto the adhering NSCs or NSCs in suspension.
(§5) After 1 hour of incubation at 37°C cells were washed five times with pre-warmed Washing Buffer, cell membrane bound phages (MP) and internalized clones (IP) were recovered from independent duplicates of differentiating progenies by eluting and/or lysing the cells respectively. The cell surface was stripped by a 5 minutes incubation of 5 ml of Glycine Buffer (0.2 M Glycine-HCl supplemented with 1 mg/ml BSA (pH 2.2)) at RT. Eluted Phages were neutralized with 5 ml of 1 M Tris-HCl buffer (pH 8) and amplified.
(§6) Cells were then lysed with 9 ml of Lysing Buffer (0.1% TEA in PBS) for 5 minutes at RT. Internalized phages were neutralized with 1 ml of 1 M Tris-HCl buffer.
(§7) Neutralized phages were titered by infection of Escherichia coli to monitor the selection. Internalized and eluted phages were amplified separately for another round of selection. Three rounds of positive selection were performed. At round number two and three the biopannings of internalized and eluted phages were performed in different cell cultures (but with identical culture conditions) by collecting the phages of interest (i.e. internalized phages from libraries of internalized phages) and discarding the leftovers.
(§8) After the third round of biopanning, phage clones were randomly picked out from the titer plates and sequenced. Thirty phage plaques per each set of phages were randomly picked for sequencing. A small number of clones wasn't successfully sequenced. […] In the case of panning against NSC in suspension the highest consensus was for KLPGWSG (47.36 for MP), GETRAPL (14.28% for IP and 10.52% for MP) and HAIYPRH (28.57% for IP and 5.26% for MP).

[1] = test system: NSCs cultured in suspension; experiment: Phage biopanning (Ph.D.-7 library, three rounds, clone sequencing) against NSCs in suspension; assay type: cell-based, murine; conditions: after three rounds; for Eluted phage clones %: cell membrane bound phages (MP); for Internalized phage clones %: internalized clones (IP)
Experimental: as §1, §2, §3, §4, §5, §6, §7, §8

| Substance | Internalized phage clones % (murine NSCs) [%] | Eluted phage clones % (murine NSCs) [%] | further results |
| --- | --- | --- | --- |
| LQAIPRN [heptapeptide] | 3.5 |  |  |
| ALTPWAF [heptapeptide] |  |  | Eluted phage clones % [1]: 10.52% |
| KLPGWSG [heptapeptide] |  |  | Eluted phage clones % [1]: 47.36% |
| TTTPTTP |  | 4.2 |  |
| TPPFAAW |  | 4.2 |  |
| QHLPRDH [heptapeptide] | 14.2 | 8.3 |  |
| GETRAPL [heptapeptide] |  |  | Eluted phage clones % [1]: 10.52%; Internalized phage clones % [1]: 14.28% |
| FAQRVPP [heptapeptide] | 53.5 | 62.5 |  |
| SSLSVND [heptapeptide] | 10.7 | 4.2 |  |
| HAIYPRH [heptapeptide] |  |  | Eluted phage clones % [1]: 5.26%; Internalized phage clones % [1]: 28.57% |
| YRMPIWP [heptapeptide] | 3.5 |  |  |
| SILPYPY [heptapeptide] |  |  | Internalized phage clones % [1]: 14.28% |
| YIIPMHD [heptapeptide] | 3.5 | 4.2 |  |
| TAVNSDA |  | 4.2 |  |
| TPLSSHS [heptapeptide] | 3.5 |  |  |
| LTTGSGS |  | 4.2 |  |
| SSELVTH |  | 4.2 |  |
| GKPMPPM [heptapeptide] |  |  | Eluted phage clones % [1]: 10.52% |
| SASHWQI [heptapeptide] | 3.5 |  |  |
| SLPKLPP [heptapeptide] | 3.5 |  |  |
